Hit rate of the full screen: of about 320,000 compounds, about 22,000 (6.9%) were called active. Inconclusive means that the source gave no clear call. Such entries were picked first, then a sample of the others. The call rests on the fitted dose curve; in most records, active means well fitted inhibition curve with a large enough effect; inconclusive means small, poorly fitted or top-dose-only effect, or another doubt; inactive means no such curve, though single readings can be large or run the other way. Potencies of inconclusive entries are doubtful fits and often do not repeat.
assay: Primary qHTS for delayed death inhibitors of the malarial parasite plastid, 96 hour incubation; settings: P. falciparum luciferase reporter growth; series mostly up to 28.7 µM
Procedure, shortened: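 P. falciparum expressing integrated firefly luciferase, in erythrocytes at 2% hematocrit, 0.05% parasitemia, incubated with compounds 96 h at 37 C, 5% CO2. Growth inhibition read as loss of luminescence; two-generation exposure targets delayed-death apicoplast inhibitors.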
Potency means the concentration at half of the fitted maximal effect.

| SMILES | Potency |
| --- | --- |
| c1ccc(-c2nc(-c3ccncc3)no2)cc1 | inactive |
| COc1ccc(-c2c(C#N)sc(C(N)=O)c2-c2ccc(OC)cc2)cc1 | inconclusive: 0.465 µM [inhibitor, full curve, poor fit] |
| COCCN(C(=O)COC(=O)c1c(-c2ccccc2)noc1C)c1c(N)n(Cc2ccccc2)c(=O)[nH]c1=O | active: 11.7 µM |
| O=C(CCc1ccccc1Cl)NC1CCCN(c2ccc(C(F)(F)F)cn2)C1 (configuration not stated) | inactive |
| O=C(NC(=O)c1cccc(F)c1)OC[C@@H]1CCCN2CCCC[C@H]12 | inconclusive: 18.5 µM [inhibitor, single point] |
| COc1ccc(/C=C(\NC(=O)c2ccccc2)C(=O)N2CCN(C)CC2)cc1OC | inconclusive: 4.65 µM [inhibitor, partial curve] |
| Cc1cc(NC(=O)CCN2C(=O)/C(=C/c3ccccc3Cl)SC2=S)no1 | inactive |
| Cc1ccc(C(=O)N[C@H](C(=O)Nc2sccc2C(N)=O)C(C)C)cc1 | inconclusive: 18.5 µM [inhibitor, single point] |
| O=C(NN1C(=O)C2C(C1=O)C1C=CC2C12CC2)c1cccc(Cl)c1 (configuration not stated) | inconclusive: 13.1 µM [inhibitor, single point] |
| COc1ccc(CNc2cc(C)ccn2)cc1 | inconclusive: 11.7 µM [inhibitor, partial curve, poor fit] |
| Cc1c(Cl)cccc1Nc1nc(N)nc(CSC(=S)N2CCOCC2)n1 | inconclusive: 1.85 µM [inhibitor, single point] |
| COc1ccc(SCC(=O)Nc2ccc(N3CCN(C)CC3)c(F)c2)cc1 | inactive |
| Cc1ccc(NC2=C(N3CCCCC3)C(=O)c3ccccc3C2=O)cc1 | active: 0.0738 µM |
| CCC(C)NC(=O)c1cn(CC)c2ccc(S(=O)(=O)N3CCCCCC3)cc2c1=O (configuration not stated) | active: 13.1 µM |
| Cc1ccc(NC(=O)c2cccc3c2C(=O)N(C2CCCCC2)C3)cc1 | active: 11.7 µM |
| COC(=O)C1=C(c2c(C)noc2C)C[C@@H]2CC[C@H]1N2C(=O)N1CCC(C)CC1 | inconclusive: 3.7 µM [inhibitor, single point] |
| CCN(CC)CCN1C(=O)C(=O)/C(=C(/O)c2ccc(OC)cc2)C1c1cccs1 (configuration not stated) | inactive |
| C=CCNC(=O)C1CC(c2cccc(OC)c2)=NO1 (configuration not stated) | inactive |
| O=C(CCN1C(=O)C2C3C=CC(C3)C2C1=O)NCCN1CCCc2ccccc21 (configuration not stated) | inconclusive: 0.185 µM [inhibitor, full curve, poor fit] |
| CCCN1CCc2c(sc(NC(=O)c3ccc(S(=O)(=O)N4CCCC4)cc3)c2C(N)=O)C1 | inconclusive: 4.15 µM [inhibitor, partial curve] |
| CCOC(=O)c1c(-c2ccccc2)csc1NC(=O)c1cc(S(=O)(=O)N2CCOCC2)ccc1C | inconclusive: 2.08 µM [inhibitor, full curve, poor fit] |
| O=C(N/N=C/c1ccco1)c1ccccc1OCc1ccccc1Cl | inactive |
| N#CC12CCCCC1CC1CCCCC1(C#N)N2Cc1ccccn1 (configuration not stated) | active: 9.28 µM |
| Cc1cc(C)c(S(=O)(=O)N2CCN(S(=O)(=O)N3CCOCC3)CC2)c(C)c1 | active: 2.33 µM |

| SMILES | Potency |
| --- | --- |
| COc1ccc(S(=O)(=O)Nc2ccc(S(=O)(=O)Nc3nc(C)cc(C)n3)cc2)cc1OC | inconclusive: 11.7 µM [inhibitor, partial curve] |
| O=C(NCC(c1cccnc1)N1CCOCC1)NC1CCCCC1 (configuration not stated) | inconclusive: 7.38 µM [inhibitor, partial curve, poor fit] |
| O=C(CCC(=O)c1cccs1)NCC(=O)Nc1ccc(F)c(F)c1F | inactive |
| Cn1c(CCNC(=O)C(C)(C)C)nc2ccccc21 | inactive |
| Cc1ccc(S(=O)(=O)N2CCN(C(=O)c3c(C)nn(-c4ccccc4)c3Cl)CC2)cc1 | inconclusive: 18.5 µM [inhibitor, single point] |
| CCN(C(=O)COC(=O)CNC(=O)C1CCCCC1)c1ccccc1 | inactive |
| CC(C)[C@H](CN(N=O)[C@@H](Cc1ccccc1)CN(C)N=O)N(CCc1ccccc1)N=O | inconclusive: 14.7 µM [inhibitor, single point] |
| CC1=C(C(=O)Nc2cccc(C(=O)NC3CCCCC3C)c2)SCCO1 (configuration not stated) | active: 9.28 µM |
| CCOC(=O)N1CCN(C(=O)CSc2nc3ccccc3c(=O)n2-c2ccccc2)CC1 | inconclusive: 18.5 µM [inhibitor, single point] |
| O=[N+]([O-])/C=C/c1cn(Cc2ccc(F)cc2)c2ccccc12 | inconclusive: 2.94 µM [inhibitor, full curve] |
| O=C(Nc1ccccc1C(=O)O)c1ccc(N2C(=O)C3CC=CCC3C2=O)cc1 (configuration not stated) | inactive |
| CCOC(=O)CC(NC(=O)Cn1nnc(-c2ccccc2F)n1)c1ccc(OC)cc1 (configuration not stated) | inconclusive: 18.5 µM [inhibitor, single point] |
| COc1ccc(OC)c(CN2CCN(C(=O)CNC(=O)c3cc(C)cc(C)c3)CC2)c1 | inactive |
| CC1CCc2sc(C(=O)N3CCC(C(N)=O)CC3)cc2C1 (configuration not stated) | inactive |
| O=C(NCc1ccc(Cl)s1)c1cc(COc2c(F)cccc2F)on1 | inconclusive: 6.57 µM [inhibitor, partial curve, poor fit] |
| CC(=O)N1CC(C)Sc2ccc(S(=O)(=O)NCCc3ccccc3)cc21 (configuration not stated) | inconclusive: 6.57 µM [inhibitor, partial curve] |
| Clc1ccc(CSC(Cn2ccnc2)c2ccc(Cl)cc2Cl)cc1 (configuration not stated) | active: 2.94 µM |
| COc1ccc(N2CCN(C(=O)CCCCCn3c(=S)[nH]c4cc5c(cc4c3=O)OCO5)CC2)cc1 | inconclusive: 16.5 µM [inhibitor, single point] |
| Cc1cccc(C2c3[nH]c4ccccc4c3CCN2C(=O)c2cc(CC(C)C)nc(C)n2)n1 (configuration not stated) | inconclusive: 18.5 µM [inhibitor, single point] |
| CC(CCc1ccccc1)NC(=O)CSc1nnnn1C (configuration not stated) | active: 4.65 µM |
| Cc1cnc(C(=O)OC(C)C(=O)NC2CCCc3ccccc32)cn1 (configuration not stated) | inactive |
| O=c1c2ccccc2nnn1CSc1nnc(-c2ccc3c(c2)OCO3)o1 | inactive |
| CCn1cc(CN2CCC(n3nccc3NC(=O)Cc3ccccc3)CC2)cn1 | active: 10.4 µM |
| O=C(COc1ccc(Br)cc1CNCCCN1CCOCC1)Nc1ccccc1 | active: 2.94 µM |

An excerpt from above in order of SMILES length, low to high.

| SMILES | Potency |
| --- | --- |
| O=C(COc1ccc(Br)cc1CNCCCN1CCOCC1)Nc1ccccc1 | active: 2.94 µM |
| CCOC(=O)N1CCN(C(=O)CSc2nc3ccccc3c(=O)n2-c2ccccc2)CC1 | inconclusive: 18.5 µM [inhibitor, single point] |
| COc1ccc(OC)c(CN2CCN(C(=O)CNC(=O)c3cc(C)cc(C)c3)CC2)c1 | inactive |
| COc1ccc(S(=O)(=O)Nc2ccc(S(=O)(=O)Nc3nc(C)cc(C)n3)cc2)cc1OC | inconclusive: 11.7 µM [inhibitor, partial curve] |

Going on with the list:

| SMILES | Potency |
| --- | --- |
| CC(C)C[C@H](NC(=O)c1[nH]cnc1C(=O)N[C@@H](Cc1ccccc1)C(=O)OC(C)(C)C)C(=O)OC(C)(C)C | inconclusive: 9.28 µM [inhibitor, single point] |
| Cc1ccc(NC(=O)c2ccc(NCc3ccco3)c([N+](=O)[O-])c2)cc1Cl | inactive |
| Nc1ncnc2c1ncn2[C@@H]1O[C@H](CO)[C@@H](O)[C@H]1O | inactive |
| Cc1ccccc1NS(=O)(=O)c1ccc(C)c(C(=O)N2CCOCC2)c1 | inconclusive: 14.7 µM [inhibitor, partial curve, poor fit] |
| O=C(COC(=O)c1cc([N+](=O)[O-])ccc1N1CCOCC1)NC1CCCCC1 | inactive |
| Cn1nnnc1SCC(=O)Nc1ccc(Cl)cn1 | inconclusive: 18.5 µM [inhibitor, single point] |
| O=C(O)c1cccc2c1C(=O)N(C1CCCC1)C2 | inactive |
| Cc1cccc(OCC(O)CN2CCOCC2)c1 (configuration not stated) | inconclusive: 18.5 µM [inhibitor, single point] |
| COc1ccc(CNC(=O)[C@H](C)NC(=O)C2CCN(C(=O)[C@@H](N)CCSC)CC2)cc1 | inconclusive: 0.415 µM [inhibitor, full curve, poor fit] |
| CC1(NC(=O)CN2CCN(c3cnn(-c4ccccc4)c(=O)c3Cl)CC2)CCS(=O)(=O)C1 (configuration not stated) | inconclusive: 4.15 µM [inhibitor, single point] |
| Cc1ccc(O)c(/C=N/NC(=O)CN2CCCC2)c1 | inconclusive: 18.5 µM [inhibitor, single point] |
| CN(C)CCCNC(=S)N(CCN(C)C)Cc1cc2cc3c(cc2[nH]c1=O)OCCO3 | inconclusive: 18.5 µM [inhibitor, single point] |
| O=C(C1=C[C@H](c2csc3ccccc23)C[C@H](OCc2ccc(CO)cc2)O1)N1CCN(Cc2ccc3c(c2)OCO3)CC1 | active: 4.15 µM |
| Cc1ccccc1CN1CCC(C(=O)Nc2ccc(Oc3cccnc3)cc2)CC1 | inactive |
| O=c1c(Cl)c(NS(=O)(=O)c2ccccc2)cnn1-c1ccccc1 | inactive |
| COc1cccc(CNCC(=O)Nc2ccc(N3CCOCC3)cc2)c1 | inactive |
| Cc1nc(SCC(=O)NCC2CCCO2)c2oc3ccccc3c2n1 (configuration not stated) | inconclusive: 2.62 µM [inhibitor, full curve] |
| CCCC(=O)Nc1nc(C)c(-c2csc(Nc3cc(OC)ccc3OC)n2)s1 | inconclusive: 11.7 µM [inhibitor, partial curve] |
| CN1CCC(N(C)C(=O)/C=C/c2cn(-c3ccccc3)nc2-c2cccs2)CC1 | inconclusive: 3.29 µM [inhibitor, full curve] |
| CCOc1ccc(N2C(=O)C(Cl)=C(N3CCOCC3)C2=O)cc1 | inconclusive: 13.1 µM [inhibitor, single point] |
| Clc1nc(-c2ccccc2)c2ccccc2n1 | inconclusive: 13.1 µM [inhibitor, single point] |
| CC(C)c1ccccc1-n1c(SCc2cc(=O)oc3ccc4ccccc4c23)nnc1-c1cccnc1 | active: 8.28 µM |
| CC(NC(=O)c1ccc(N2CCNCC2)c([N+](=O)[O-])c1)C12CC3CC(CC(C3)C1)C2 (configuration not stated) | inconclusive: 11.7 µM [inhibitor, single point] |
| Cc1cc(C(=O)COC(=O)c2ccc(N)cc2)c(C)n1-c1c(C)n(C)n(-c2ccccc2)c1=O | inconclusive: 2.62 µM [inhibitor, single point] |
